{
  "source": "paper PMC10516749",
  "target": "T1, FBXO28-Flag-Myc (pCMV6-FBXO28-Myc-Flag) (UniProt Q9NVF7)",
  "T1 sequence": "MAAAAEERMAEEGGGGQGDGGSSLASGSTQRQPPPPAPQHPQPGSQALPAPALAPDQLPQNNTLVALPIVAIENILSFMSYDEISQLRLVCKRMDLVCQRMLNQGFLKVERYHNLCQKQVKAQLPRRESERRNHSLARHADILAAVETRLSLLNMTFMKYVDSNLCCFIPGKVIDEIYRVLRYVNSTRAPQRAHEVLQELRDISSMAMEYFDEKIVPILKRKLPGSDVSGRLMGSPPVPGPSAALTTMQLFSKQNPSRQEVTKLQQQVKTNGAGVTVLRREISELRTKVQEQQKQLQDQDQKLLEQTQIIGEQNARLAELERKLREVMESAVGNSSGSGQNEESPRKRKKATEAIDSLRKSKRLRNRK",
  "experiment": "co-IP; HEK293T cells transfected with FBXO28 and SNAI2 plasmids (wild type or mutants) for 48 h, MG132 20 uM 6 h before harvest, Triton X-100 buffer, IP and IB",
  "note": "These are yes or no findings as the source states them, for the method shown. Binding seen in cells or lysates may run through a third protein. Tags and fused reporters may be left off the sequences shown.",
  "data": [
    {"substance": "SNAI2 ΔZnF (deletion mutant lacking the Zinc finger domain) (domain or fragment)", "values": [
      {"measurement": "binding", "result": "no binding"}
    ]}
  ]
}
